Our source for the binding values is publication PMC4378997.

Chains of the proteins cited; added tags and fusions are not shown.
UniProt Q03018: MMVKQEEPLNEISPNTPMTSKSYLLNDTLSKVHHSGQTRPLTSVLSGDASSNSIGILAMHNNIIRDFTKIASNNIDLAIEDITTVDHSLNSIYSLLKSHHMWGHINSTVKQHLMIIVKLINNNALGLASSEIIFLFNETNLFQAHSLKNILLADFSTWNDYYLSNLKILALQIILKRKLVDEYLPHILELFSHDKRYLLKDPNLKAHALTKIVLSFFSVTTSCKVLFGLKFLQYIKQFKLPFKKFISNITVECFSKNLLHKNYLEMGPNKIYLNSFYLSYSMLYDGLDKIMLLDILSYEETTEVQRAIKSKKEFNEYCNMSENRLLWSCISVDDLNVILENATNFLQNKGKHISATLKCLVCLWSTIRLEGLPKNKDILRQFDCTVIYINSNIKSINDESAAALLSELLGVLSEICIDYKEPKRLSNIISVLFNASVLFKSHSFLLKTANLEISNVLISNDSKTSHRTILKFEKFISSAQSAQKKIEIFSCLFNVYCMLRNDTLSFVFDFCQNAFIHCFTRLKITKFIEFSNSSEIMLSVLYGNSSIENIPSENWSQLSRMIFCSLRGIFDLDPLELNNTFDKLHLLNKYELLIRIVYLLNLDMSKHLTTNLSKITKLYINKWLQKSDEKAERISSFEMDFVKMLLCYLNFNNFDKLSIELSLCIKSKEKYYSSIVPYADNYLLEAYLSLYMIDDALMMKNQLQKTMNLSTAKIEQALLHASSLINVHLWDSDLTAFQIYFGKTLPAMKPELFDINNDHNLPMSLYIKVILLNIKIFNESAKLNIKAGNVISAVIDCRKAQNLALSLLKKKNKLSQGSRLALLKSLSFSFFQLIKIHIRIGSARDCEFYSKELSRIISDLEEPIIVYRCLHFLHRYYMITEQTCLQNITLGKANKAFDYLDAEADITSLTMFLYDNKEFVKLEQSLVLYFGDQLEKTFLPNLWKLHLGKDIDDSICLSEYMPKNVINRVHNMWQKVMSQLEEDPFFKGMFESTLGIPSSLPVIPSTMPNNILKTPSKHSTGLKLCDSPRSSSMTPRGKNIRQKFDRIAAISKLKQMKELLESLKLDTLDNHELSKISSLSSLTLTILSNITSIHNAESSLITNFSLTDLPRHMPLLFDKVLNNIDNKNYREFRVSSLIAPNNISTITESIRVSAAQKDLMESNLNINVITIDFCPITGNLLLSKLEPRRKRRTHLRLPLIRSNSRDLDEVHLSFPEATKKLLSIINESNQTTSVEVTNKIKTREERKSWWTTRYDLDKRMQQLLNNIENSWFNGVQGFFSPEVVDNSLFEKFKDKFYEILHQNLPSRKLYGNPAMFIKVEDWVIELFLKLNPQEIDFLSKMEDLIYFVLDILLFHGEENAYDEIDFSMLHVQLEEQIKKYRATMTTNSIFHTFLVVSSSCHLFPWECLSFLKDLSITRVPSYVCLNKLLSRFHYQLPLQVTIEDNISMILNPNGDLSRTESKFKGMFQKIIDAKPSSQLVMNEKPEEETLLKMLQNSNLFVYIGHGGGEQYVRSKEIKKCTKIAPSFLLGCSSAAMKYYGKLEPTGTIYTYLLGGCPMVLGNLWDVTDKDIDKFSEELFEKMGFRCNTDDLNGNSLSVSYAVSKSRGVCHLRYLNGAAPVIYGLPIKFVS
UniProt P32558: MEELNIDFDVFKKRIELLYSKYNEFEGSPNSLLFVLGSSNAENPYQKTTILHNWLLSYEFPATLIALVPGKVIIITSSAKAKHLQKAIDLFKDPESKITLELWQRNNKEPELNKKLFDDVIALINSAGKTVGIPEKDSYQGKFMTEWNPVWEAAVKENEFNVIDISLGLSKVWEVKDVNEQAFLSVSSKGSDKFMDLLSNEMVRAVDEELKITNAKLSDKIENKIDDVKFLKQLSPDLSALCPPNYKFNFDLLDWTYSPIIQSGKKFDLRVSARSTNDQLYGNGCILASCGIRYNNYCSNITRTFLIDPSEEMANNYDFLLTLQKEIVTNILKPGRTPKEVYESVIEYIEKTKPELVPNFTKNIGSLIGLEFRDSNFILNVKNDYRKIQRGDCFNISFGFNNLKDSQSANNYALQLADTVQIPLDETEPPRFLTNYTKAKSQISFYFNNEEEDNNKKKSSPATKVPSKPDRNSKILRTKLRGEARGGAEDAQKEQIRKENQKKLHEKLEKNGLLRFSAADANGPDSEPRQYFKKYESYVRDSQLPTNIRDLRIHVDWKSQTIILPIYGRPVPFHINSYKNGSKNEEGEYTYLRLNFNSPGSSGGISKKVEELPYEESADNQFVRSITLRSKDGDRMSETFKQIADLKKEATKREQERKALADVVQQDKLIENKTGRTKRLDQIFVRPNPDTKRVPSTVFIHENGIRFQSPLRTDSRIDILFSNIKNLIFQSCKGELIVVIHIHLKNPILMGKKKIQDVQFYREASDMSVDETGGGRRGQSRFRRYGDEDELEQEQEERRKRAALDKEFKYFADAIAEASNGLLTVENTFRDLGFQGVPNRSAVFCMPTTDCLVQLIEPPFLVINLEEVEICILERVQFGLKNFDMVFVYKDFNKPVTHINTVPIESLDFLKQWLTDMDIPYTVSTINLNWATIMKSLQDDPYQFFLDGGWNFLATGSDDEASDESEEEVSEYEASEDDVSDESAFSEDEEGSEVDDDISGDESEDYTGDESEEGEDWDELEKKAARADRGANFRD
UniProt P34160: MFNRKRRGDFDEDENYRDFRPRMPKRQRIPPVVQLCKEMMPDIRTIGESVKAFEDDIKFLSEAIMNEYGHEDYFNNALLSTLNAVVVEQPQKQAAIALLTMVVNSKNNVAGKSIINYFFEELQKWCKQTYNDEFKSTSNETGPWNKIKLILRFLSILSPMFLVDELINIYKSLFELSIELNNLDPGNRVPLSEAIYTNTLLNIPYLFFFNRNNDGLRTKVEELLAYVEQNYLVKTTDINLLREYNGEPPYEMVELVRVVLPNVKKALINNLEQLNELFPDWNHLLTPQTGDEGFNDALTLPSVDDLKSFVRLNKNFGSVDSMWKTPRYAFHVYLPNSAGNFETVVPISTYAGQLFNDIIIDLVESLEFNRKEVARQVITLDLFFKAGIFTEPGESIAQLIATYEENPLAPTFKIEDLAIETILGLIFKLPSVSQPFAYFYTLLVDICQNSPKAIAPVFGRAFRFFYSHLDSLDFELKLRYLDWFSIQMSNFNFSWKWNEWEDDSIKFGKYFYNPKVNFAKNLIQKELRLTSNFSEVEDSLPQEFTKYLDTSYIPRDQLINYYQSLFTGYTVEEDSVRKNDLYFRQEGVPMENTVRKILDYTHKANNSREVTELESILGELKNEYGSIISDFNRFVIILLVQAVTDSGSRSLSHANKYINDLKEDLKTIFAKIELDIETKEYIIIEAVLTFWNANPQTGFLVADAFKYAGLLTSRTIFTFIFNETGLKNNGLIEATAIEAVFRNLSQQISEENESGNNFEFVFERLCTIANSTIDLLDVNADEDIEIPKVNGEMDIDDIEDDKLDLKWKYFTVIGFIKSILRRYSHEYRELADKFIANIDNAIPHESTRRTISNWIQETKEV

The target in experiment [1] is 13Myc-tagged Esp1 (S. cerevisiae) (UniProt Q03018). The experiment is described as follows: affinity purification with mass spectrometry; one-step IP of Esp1-13Myc from lysate of logarithmically growing yeast with 9E10 anti-Myc antibody cross-linked to Sepharose, 4 h at 4°C, washes with 500mM NaCl; compared by spectral counting with a mock IP from an untagged strain.

Experiment [2] shares this target. Described as above. The source holds these as a separate data set.

Read-outs that look alike come from different tables or passages of the source. These are yes or no findings as the source states them, for the method shown. In cells and extracts the contact can be indirect. These calls come from enrichment with a bait or labelling near it, and not all partners need be listed.

As to Spt16 (from UniProt P32558 1-1035), the binding entry in experiment [1] is reported as “binds”.
Still for that read-out and setting: as for Sto1 (from UniProt P34160 1-861), the entry is “binds”.

B1: Smi1 (protein, UniProt P32566 1-505)
chain: MDLFKRKVKEWVYSLSTDDHYAEYNPDETPTFNMGKRLNSNNGQVNPSQMHLNSVDEEMSMGFQNGVPSNEDINIDEFTSTESNDGVSETLLAWRHIDFWTSEHNPDLNATLSDPCTQNDITHAEEDLEVSFPNPVKASFKIHDGQEDLESMTGTSGLFYGFQLMTLDQVVAMTQAWRNVAKNLNKRSQQGLSHVTSTGSSSSMERLNGNKFKLPNIPDQKSIPPNAVQPVYAHPAWIPLITDNAGNHIGVDLAPGPNGKYAQIITFGRDFDTKFVIAENWGEFLLSFANDLEAGNWYLVDDNDDYFSGDGELVFRDKKSNGPIQDYFEVLKRRTWIKYQENLRSQQQKSQPDTSLQEQKYVPASQKKVAAEQPSTLNAESIKGEDSGSADVQSVQDHESVKIVKTEPSEAETTTVNTESLGQAEHEIKADNVDIKQESERKEDEKQPKVEEKEHVENEHVTESAKKDDDVNKQTEEMNKKEENEIRSDDAKVEEAREEFENIAL
Turning to B1, the binding result in experiment [2] was “binds”.
